Test [1] addresses T1, Flag-tagged LMO4 (full-length) (UniProt P61968).
T1 sequence (looked up): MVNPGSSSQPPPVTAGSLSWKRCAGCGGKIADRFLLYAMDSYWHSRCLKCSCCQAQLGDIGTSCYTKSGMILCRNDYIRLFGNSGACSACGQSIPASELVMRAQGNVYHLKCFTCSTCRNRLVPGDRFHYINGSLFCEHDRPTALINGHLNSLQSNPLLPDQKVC
Kind of test: co-immunoprecipitation (anti-Flag) / anti-HA western blot, transfected 293T cells. (In general: A western blot detects proteins with antibodies after separation by electrophoresis.)

By UniProt entry, the sequences of proteins in these tests, tags left out. Residues count along the entry.
UniProt Q99708, residues 45-897: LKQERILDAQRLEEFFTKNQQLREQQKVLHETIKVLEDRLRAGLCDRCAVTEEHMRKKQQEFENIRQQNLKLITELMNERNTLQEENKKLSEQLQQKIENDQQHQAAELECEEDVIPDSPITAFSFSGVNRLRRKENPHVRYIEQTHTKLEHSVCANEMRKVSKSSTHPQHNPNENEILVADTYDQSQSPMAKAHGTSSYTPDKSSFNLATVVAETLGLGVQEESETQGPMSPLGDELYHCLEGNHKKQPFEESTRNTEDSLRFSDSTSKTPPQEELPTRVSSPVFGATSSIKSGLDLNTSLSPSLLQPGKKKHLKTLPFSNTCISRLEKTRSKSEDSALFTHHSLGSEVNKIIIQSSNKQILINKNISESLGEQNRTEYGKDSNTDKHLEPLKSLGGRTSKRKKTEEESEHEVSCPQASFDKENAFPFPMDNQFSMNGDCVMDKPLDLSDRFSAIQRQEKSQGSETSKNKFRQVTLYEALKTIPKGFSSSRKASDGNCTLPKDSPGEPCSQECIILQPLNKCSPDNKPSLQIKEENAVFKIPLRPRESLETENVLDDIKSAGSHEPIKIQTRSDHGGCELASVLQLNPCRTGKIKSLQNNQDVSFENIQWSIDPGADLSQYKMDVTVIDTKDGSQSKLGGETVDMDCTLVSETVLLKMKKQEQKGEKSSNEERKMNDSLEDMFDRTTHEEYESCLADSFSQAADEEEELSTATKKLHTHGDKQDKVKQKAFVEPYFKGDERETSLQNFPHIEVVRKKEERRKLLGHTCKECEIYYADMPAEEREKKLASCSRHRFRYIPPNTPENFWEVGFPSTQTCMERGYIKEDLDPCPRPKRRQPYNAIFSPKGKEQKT
UniProt P38398, residues 1528-1863: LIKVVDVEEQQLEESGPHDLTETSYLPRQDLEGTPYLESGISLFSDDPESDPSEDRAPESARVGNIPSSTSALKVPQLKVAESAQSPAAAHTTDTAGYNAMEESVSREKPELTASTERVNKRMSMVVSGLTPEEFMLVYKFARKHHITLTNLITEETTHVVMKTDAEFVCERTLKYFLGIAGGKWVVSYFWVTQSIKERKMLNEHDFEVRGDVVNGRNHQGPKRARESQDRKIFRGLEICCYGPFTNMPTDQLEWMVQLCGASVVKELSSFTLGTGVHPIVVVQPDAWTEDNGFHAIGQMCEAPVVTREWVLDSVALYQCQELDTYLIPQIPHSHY

Test [2] has as its target T1, Flag-tagged LMO4 (full-length). Kind of test: co-immunoprecipitation (anti-Flag) / anti-HA western blot, transfected 293T cells (FIG. 10A).

This is an account of results in patent publication US20050048528A1.

No constants are given. Whether binding was seen depends on the method and setting. Binding seen in cells or lysates may run through a third protein. Some entries that bind do so weakly or less than the wild type. Tags and fused reporters may be left off the sequences shown.

On to “CtIP (residues 45-897), human, from pCMV-HA-ns311 (from UniProt Q99708 45-897)”, for which, in test [1], the binding entry is “binds”.
On to “HA-tagged BRCA1 SZ fragment (residues 1528-1863) (from UniProt P38398 1528-1863)”, for which the binding result in test [1] and in test [2] was “binds” throughout.
